Results are given in words; binding and its absence hold for the method and conditions named. In cells and extracts the contact can be indirect. Binding can be weak; no strength is given.
Target: T1, retinoid X receptor α (UniProt P28700)
T1 sequence: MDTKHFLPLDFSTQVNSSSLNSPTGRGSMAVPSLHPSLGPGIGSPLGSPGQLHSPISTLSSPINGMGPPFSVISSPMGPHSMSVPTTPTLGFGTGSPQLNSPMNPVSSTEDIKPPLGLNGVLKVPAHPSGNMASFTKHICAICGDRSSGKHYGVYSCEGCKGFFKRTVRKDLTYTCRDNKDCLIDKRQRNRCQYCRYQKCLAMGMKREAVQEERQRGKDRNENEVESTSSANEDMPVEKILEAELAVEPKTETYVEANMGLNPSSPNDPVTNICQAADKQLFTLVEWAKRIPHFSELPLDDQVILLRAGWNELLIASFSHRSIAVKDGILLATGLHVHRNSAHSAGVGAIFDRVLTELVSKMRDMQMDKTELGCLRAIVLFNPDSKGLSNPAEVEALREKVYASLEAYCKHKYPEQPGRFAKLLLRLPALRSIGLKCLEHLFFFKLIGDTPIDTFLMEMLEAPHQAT
Assay: co-IP

Zinc finger protein 407
binding: binds
